Results are given in words; binding and its absence hold for the method and conditions named. Some entries that bind do so weakly or less than the wild type.
What was measured:
[1] = target: T1, mouse cell surface latent TGF-beta 1 (mouse, UniProt P04202 30-390); assay: FACS on Ba/F3 cells (FIG. 29A)
T1 construct: Endogenous latent TGF-beta 1 (forming LLC) on Ba/F3 cells, and the latent TGF-beta 1 of mouse PBMC in the co-culture assay; also called cell surface mouse latent TGF-beta 1; latent TGF-beta 1 on Ba/F3 cells

Amino acid sequences for entries named in this document (tags omitted). A change or cut given only in a name is not applied to a line headed by its entry.
UniProt P04202: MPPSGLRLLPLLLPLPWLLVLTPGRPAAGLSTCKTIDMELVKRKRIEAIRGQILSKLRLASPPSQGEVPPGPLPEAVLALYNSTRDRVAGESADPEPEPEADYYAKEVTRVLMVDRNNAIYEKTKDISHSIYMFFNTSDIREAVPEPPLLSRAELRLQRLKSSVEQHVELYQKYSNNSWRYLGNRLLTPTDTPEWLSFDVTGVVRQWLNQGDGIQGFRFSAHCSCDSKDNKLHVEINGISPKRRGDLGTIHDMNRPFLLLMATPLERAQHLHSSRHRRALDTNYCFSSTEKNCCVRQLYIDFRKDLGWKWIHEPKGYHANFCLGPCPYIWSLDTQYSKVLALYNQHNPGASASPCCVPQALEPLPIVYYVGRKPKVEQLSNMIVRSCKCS
UniProt P01137: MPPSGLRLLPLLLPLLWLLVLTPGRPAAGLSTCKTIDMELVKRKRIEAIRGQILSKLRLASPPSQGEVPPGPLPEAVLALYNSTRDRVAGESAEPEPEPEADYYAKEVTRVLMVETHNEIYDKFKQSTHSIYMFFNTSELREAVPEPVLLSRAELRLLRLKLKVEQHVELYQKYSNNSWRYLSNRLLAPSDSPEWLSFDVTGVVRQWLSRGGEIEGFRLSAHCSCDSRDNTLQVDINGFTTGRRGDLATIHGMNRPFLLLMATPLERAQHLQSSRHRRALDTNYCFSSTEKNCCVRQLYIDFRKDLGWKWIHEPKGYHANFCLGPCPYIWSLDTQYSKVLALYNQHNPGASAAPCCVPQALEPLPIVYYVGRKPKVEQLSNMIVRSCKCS

[2] = target: T1, mouse cell surface latent TGF-beta 1; assay: FACS on Ba/F3 cells that endogenously express latent TGF-beta 1 forming LLC
[3] = target: T1, mouse cell surface latent TGF-beta 1; assay: FACS on Ba/F3 cells, PE-labelled secondary antibody, MFI
Procedure: (§1) Anti-latent TGF-beta 1 antibodies were incubated with each cell line for 30 minutes at 4 degrees C. and washed with FACS buffer (2% FBS, 2 mM EDTA in PBS). Anti-KLH antibody (IC17) was used for a negative control antibody. Goat F(ab′)2 anti-Human IgG, Mouse ads-PE (Southern Biotech, Cat. 2043-09) or Goat F(ab′)2 anti-Mouse IgG(H+L), Human Ads-PE (Southern Biotech, Cat. 1032-09) was then added and incubated for 30 minutes at 4 degrees C. and washed with FACS buffer. Data acquisition was performed on an FACS Verse (Becton Dickinson), followed by analysis using FlowJo software (Tree Star) and GraphPad Prism software (GraphPad).

[4] = target: recombinant mouse latent TGF-beta 1 (Flag-tagged mouse latent TGF-beta 1) (mouse) (UniProt P04202); assay: Biacore tandem blocking assay, FLAG-tagged mouse latent TGF-beta 1 captured on anti-FLAG M2, antibody 500 nM
[5] = target: T2, human cell surface latent TGF-beta 1 (human, UniProt P01137 30-390); assay: FACS on FreeStyle 293-F cells (FIG. 29B)
T2 construct: also called cell surface human latent TGF-beta 1

[6] = target: T2, human cell surface latent TGF-beta 1; assay: FACS on FreeStyle 293-F cells that endogenously express latent TGF-beta 1 forming LLC
[7] = target: T2, human cell surface latent TGF-beta 1; assay: FACS on FreeStyle 293-F cells, PE-labelled secondary antibody, MFI
Procedure: as §1

Measured: binding

B1: TBS139 (antibody, mouse IgG1, kappa, V domains shown)
VH: QSLEESGGDLVKPGASLTLTCTASGFSFSSYWMSWVRQAPGKGLEYIGMISIIGTTYYASWAKGRFTISKTSSTTVTLQVTSLTAADTATYFCARGYVSNSNYWGLWGPGTLVTVSS
VL: AYDMTQTPASVEVAVGGTVTIKCQASQNIGSNLAWYQQKPGQPPKLLIYYASDLASGVPSRFKGSGSGTRYTLTISGVQCDDAATYYCQQYWSSSNVDNTFGGGTEVVVKR
binds: [1] | [2] | [3] | [4]

B2: TBS182 (antibody, V domains shown)
VH: QSLEESGGDLVKPGASLTLTCTASGFSFSRSYYMCWVRQAPGKGLEWIACIYGGSSGSTWYASWAKGRFTISKTSSTTVTLQMTSLTAADTATYFCARDIGNYYRWWGPGTLVTVSS
VL: AVVLTQTTSPVSAPVGGTVTIKCQASKNIYSLLAWYQQKPGQPPKLLIYDASTLASGVPSRFKGSGSGTQFTLTISDLECADAATYYCQSYYDSSSSADLSTFGGGTEVVVKR
binds: [1] | [2] | [3] | [4]

B3: TBA1300 (antibody, human IgG1, kappa, V domains shown)
VH: QEQLKESGGGLVTPGGTLTLTCTVSGFSLSNYDMSWVRQAPGKGLEWIGAIYTAGTTSYASWAKGRFTISKTSTTVDLKITSPTTEDTATYFCARGGSSFFYYAAHNIWGPGTLVTVSS
VL: AYDMTQTPASVEAAVGGTVTIKCQASQSIGSNLAWYQQKPGQPPKLLIYDASKLPSGVPSRFKGSGSGTEFTLTISDLECDDAATYYCQQYYTTSDVDNTFGGGTKVEIKR
notes: also called TBA1300ff-F1332m
binds: [5] | [6] | [7]
